The values that follow come from publication PMC10912303.

The target in this assay is T1, TGFBR3 (human (endogenous in HGC27 and AGS)) (UniProt Q03167).
T1 sequence: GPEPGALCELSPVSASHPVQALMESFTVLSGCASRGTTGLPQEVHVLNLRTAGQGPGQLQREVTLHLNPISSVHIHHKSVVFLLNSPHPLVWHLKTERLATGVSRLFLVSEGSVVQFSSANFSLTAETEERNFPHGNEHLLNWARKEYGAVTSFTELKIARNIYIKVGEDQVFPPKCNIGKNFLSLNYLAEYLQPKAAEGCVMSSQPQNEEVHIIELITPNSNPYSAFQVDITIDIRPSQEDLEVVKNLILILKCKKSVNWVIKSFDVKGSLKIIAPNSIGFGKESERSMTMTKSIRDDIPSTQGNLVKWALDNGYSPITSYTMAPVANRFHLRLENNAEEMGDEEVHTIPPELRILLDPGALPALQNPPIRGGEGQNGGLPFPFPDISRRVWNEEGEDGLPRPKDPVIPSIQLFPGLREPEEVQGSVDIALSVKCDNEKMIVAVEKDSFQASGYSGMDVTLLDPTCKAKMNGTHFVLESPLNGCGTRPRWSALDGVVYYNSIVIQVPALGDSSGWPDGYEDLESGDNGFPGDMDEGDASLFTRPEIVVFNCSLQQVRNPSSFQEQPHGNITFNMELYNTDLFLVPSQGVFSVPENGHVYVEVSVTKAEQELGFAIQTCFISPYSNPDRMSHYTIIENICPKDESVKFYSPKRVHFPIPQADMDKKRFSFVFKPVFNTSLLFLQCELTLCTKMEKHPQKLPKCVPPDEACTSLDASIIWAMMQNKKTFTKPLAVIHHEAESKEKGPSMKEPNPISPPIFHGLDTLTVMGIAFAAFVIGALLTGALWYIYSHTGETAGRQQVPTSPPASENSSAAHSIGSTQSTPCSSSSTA
Description: co-IP; lysates of HGC27 and AGS cells co-cultured with CAFs; primary antibody at 4 °C overnight, Protein A + G magnetic beads 1 h at room temperature, western blot. (A western blot detects proteins with antibodies after separation by electrophoresis.)

Results are given in words; binding and its absence hold for the method and conditions named. In cells and extracts the contact can be indirect. A result given as binding can be weak or reduced; the word gives no strength.

With Human sulfatase 1 (SULF1) (enzyme), the binding entry was “binds”.
